For the experiment, the target named is T1, RANK (RANKL receptor) (mouse (endogenous in OCPs from C57BL/6 bone marrow)) (UniProt O35305).
T1 sequence: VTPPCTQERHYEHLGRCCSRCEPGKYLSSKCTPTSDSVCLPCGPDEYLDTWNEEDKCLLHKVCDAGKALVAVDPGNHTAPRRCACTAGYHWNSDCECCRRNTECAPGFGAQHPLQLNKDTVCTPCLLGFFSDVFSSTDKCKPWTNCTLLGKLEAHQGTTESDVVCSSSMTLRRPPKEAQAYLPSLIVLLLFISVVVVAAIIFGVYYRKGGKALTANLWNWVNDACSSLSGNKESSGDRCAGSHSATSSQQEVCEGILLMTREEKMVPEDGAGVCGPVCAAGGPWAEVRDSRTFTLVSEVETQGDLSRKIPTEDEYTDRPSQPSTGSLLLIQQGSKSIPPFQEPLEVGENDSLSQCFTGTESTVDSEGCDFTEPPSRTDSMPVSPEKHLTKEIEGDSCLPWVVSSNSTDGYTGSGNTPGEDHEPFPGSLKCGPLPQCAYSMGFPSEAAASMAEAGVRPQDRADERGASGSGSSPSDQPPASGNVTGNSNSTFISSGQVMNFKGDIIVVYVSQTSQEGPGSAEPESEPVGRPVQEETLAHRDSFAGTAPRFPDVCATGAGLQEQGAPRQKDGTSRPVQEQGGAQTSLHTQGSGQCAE
The experiment in a line: co-IP; lysates of OCPs treated with or without RANKL for 2 h, with or without 17β-estradiol; IP with anti-RANK or anti-TRAF6 antibody, blot with anti-TRAF6 or anti-RANK antibody, respectively.

Results are given in words; binding and its absence hold for the method and conditions named. Binding seen in cells or lysates may run through a third protein. Some binding calls cover weakened binding; strength is not graded here.

B1: TRAF6 (protein, UniProt P70196 1-530)
chain: MSLLNCENSCGSSQSSSDCCAAMAASCSAAVKDDSVSGSASTGNLSSSFMEEIQGYDVEFDPPLESKYECPICLMALREAVQTPCGHRFCKACIIKSIRDAGHKCPVDNEILLENQLFPDNFAKREILSLTVKCPNKGCLQKMELRHLEDHQVHCEFALVNCPQCQRPFQKCQVNTHIIEDCPRRQVSCVNCAVSMAYEEKEIHDQSCPLANIICEYCGTILIREQMPNHYDLDCPTAPIPCTFSVFGCHEKMQRNHLARHLQENTQLHMRLLAQAVHNVNLALRPCDAASPSRGCRPEDPNYEETIKQLESRLVRQDHQIRELTAKMETQSMYVGELKRTIRTLEDKVAEMEAQQCNGIYIWKIGNFGMHLKSQEEERPVVIHSPGFYTGRPGYKLCMRLHLQLPTAQRCANYISLFVHTMQGEYDSHLPWPFQGTIRLTILDQSEALIRQNHEEVMDAKPELLAFQRPTIPRNPKGFGYVTFMHLEALRQGTFIKDDTLLVRCEVSTRFDMGGLRKEGFQPRSTDAGV
With B1, the binding entry is on record as “binds”.
